Reference: US20060216792A1, “Process for producing 2-0-alpha-d-glucopyranosyl-l-ascorbic acid” (priority 2002, published 2006)
At least one compound was matched to its structure with a doubt left.

Key:
[1] = properties of crystalline AA-2G (stability, hygroscopicity, solubility); type: physicochemical
Text: Different from the case of L-ascorbic acid, AA-2G hardly causes Maillard reaction. […] Also, by using AA-2G together with vitamins E and P, those biological activities can be increased. • (4) It is possible that AA-2G is produced and metabolized in living bodies when L-ascorbic acid and α-glucosyl saccharide are orally in taken. […] AA-2G can be advantageously used as vitamin C-reinforcement, taste-improving agent, acidifier, stabilizer, and the like for vitamin in the form of powder, granule, tablet, and the like, or foods such as cream, chocolate, chewing gum, instant juice, instant seasoning, and the like. • (6) Crystalline AA-2G is substantially non- or hardly hygroscopic.

[2] = reducing power (reduces and decolors 2,6-dichlorophenol-indophenol); type: physicochemical; settings: crystalline product of Example 1

O=C1O[C@H]([C@@H](O)CO)C(O)=C1O[C@H]1O[C@H](CO)[C@@H](O)[C@H](O)[C@H]1O [AA-2G, 2-O-α-D-glucopyranosyl-L-ascorbic acid]
hygroscopicity [1]: substantially non- or hardly-hygroscopic
reducing power [2]: no reducing power
